For 40 molecules, vesicle damage results are on record in the supplement of paper PMC4256282, “Profound Activity of the Anti-cancer Drug Bortezomib against Echinococcus multilocularis Metacestodes Identifies the Proteasome as a Novel Drug Target for Cestodes” (PLoS Neglected Tropical Diseases, 2014).

Counter-ions that a name gives are not always drawn. This is one part of the list. Many values rest on one well or one pass, so single values are uncertain.

The test system of the assay is Echinococcus multilocularis metacestodes. The assay is described as follows: vesicle damage (PGI release) relative to positive control DB1127 at 20 µM, DMSO subtracted; higher = more parasite damage. The following applies: treatment time 5 days. On the procedure:
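In vitro-cultured E. multilocularis metacestode vesicles (isolate H95, 2-4 mm) were treated in singlets with each drug of the Selleck FDA-approved library (426 drugs) at 20 µM for 5 days at 37°C. Damage was read as phosphoglucose isomerase (PGI) release into the medium, measured as the increase in absorbance at 340 nm. Activity was expressed as % of the positive control DB1127 (20 µM) after subtracting the DMSO control; a hit was defined as ≥50% of DB1127.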
Turning to `CCCNC(C)C(=O)Nc1ccccc1C` (stereo not given) [Prilocaine], the vesicle damage is -2.85%.

As for `O=c1[nH]cc(F)c(=O)[nH]1` [Adrucil], the vesicle damage is -0.561%.

For `O=c1[nH]cnc2c1ncn2[C@H]1CC[C@@H](CO)O1` [Didanosine], the vesicle damage is -2.52%.

On to `Nc1cccc2c1CN(C1CCC(=O)NC1=O)C2=O` (stereo not given) [Lenalidomide], for which the vesicle damage was determined as 5.6%.

For the molecule `COc1nc(N)nc2c1ncn2[C@@H]1O[C@H](CO)[C@@H](O)[C@@H]1O` [Nelarabine], the vesicle damage is -0.295%.

Take `OC[C@H]1OC(O)[C@H](O)[C@@H](O)[C@@H]1O` (stereo not given in full) [Dextrose]: the vesicle damage was 0.219%.

On to `CCC(=O)OCC(=O)[C@@]1(OC(=O)CC)[C@@H](C)C[C@H]2[C@@H]3CCC4=CC(=O)C=C[C@]4(C)[C@@]3(F)[C@@H](O)C[C@@]21C` [Betamethasone dipropionate], for which the vesicle damage was -0.345%.

Turning to `CC1(C)O[C@@H]2C[C@H]3[C@@H]4CCC5=CC(=O)C=C[C@]5(C)[C@H]4[C@@H](O)C[C@]3(C)[C@]2(C(=O)CO)O1` [Desonide], the vesicle damage was -2.03%.

Consider `CC(=O)SCC(Cc1ccccc1)C(=O)NCC(=O)OCc1ccccc1` (stereo not given) [Racecadotril], for which the vesicle damage is -0.491%.

`c1ccc([C@H]2CN3CCSC3=N2)cc1` [Levamisole Hydrochloride]: the vesicle damage is -10.5%.

For `C[C@@H](c1ncncc1F)[C@](O)(Cn1cncn1)c1ccc(F)cc1F` [Voriconazole], the vesicle damage is -2.75%.

As for `C[C@]12C=CC(=O)N[C@@H]1CC[C@@H]1[C@@H]2CC[C@]2(C)[C@@H](C(=O)Nc3cc(C(F)(F)F)ccc3C(F)(F)F)CC[C@@H]12` [Dutasteride], the vesicle damage is -5%.

As to `CN1C(C(=O)Nc2ccccn2)=C(O)c2ccccc2S1(=O)=O` [Piroxicam], the vesicle damage was -12.7%.

As to `CCC(C)n1ncn(-c2ccc(N3CCN(c4ccc(OCC5COC(Cn6cncn6)(c6ccc(Cl)cc6Cl)O5)cc4)CC3)cc2)c1=O` (stereo not given) [Itraconazole], the vesicle damage stood at 6.17%.

In the case of `N#Cc1ccc(C(c2ccc(C#N)cc2)n2cncn2)cc1` [Letrozole], the vesicle damage was -1.47%.

Turning to `Cc1ccc(NC(=O)c2ccc(CN3CCN(C)CC3)cc2)cc1Nc1nccc(-c2cccnc2)n1` [Imatinib], the vesicle damage worked out at 13%.

For `C#C[C@]1(O)CC[C@H]2[C@@H]3CCc4cc(OC)ccc4[C@H]3CC[C@@]21C` [Mestranol], the vesicle damage was -0.416%.

As for `CCOc1ccccc1OCCN[C@H](C)Cc1ccc(OC)c(S(N)(=O)=O)c1` [Tamsulosin hydrochloride], the vesicle damage is 0.712%.

Consider `N=C(N)NC(=O)c1nc(Cl)c(N)nc1N` [Amiloride hydrochloride], for which the vesicle damage is -13.7%.

In the case of `Nc1[nH]cnc2ncnc1-2` [Adenine hydrochloride], the vesicle damage was -1.48%.

In the case of `CN1CCC[C@@H]1CCO[C@](C)(c1ccccc1)c1ccc(Cl)cc1` [Clemastine fumarate], the vesicle damage was 0.292%.

`NC(=O)N/N=C/c1ccc([N+](=O)[O-])o1` [Nitrofurazone]: the vesicle damage is -0.799%.

`CC(=O)[C@]1(O)Cc2c(O)c3c(c(O)c2[C@@H](O[C@H]2C[C@H](N)[C@H](O)[C@H](C)O2)C1)C(=O)c1ccccc1C3=O` [Idarubicin HCl]: the vesicle damage was 6.77%.

As to `CC[C@H]1OC(=O)[C@H](C)[C@@H](O[C@H]2C[C@@](C)(OC)[C@@H](O)[C@H](C)O2)[C@H](C)[C@@H](O[C@@H]2O[C@H](C)C[C@H](N(C)C)[C@H]2O)[C@](C)(OC)C[C@@H](C)C(=O)[C@H](C)[C@@H](O)[C@]1(C)O` [Clarithromycin], the vesicle damage was found to be 1.01%.

Turning to `CCC(C)(C)c1ccc(CC(C)CN2C[C@@H](C)O[C@@H](C)C2)cc1` (stereo not given in full) [Amorolfine Hydrochloride], the vesicle damage stood at 2.25%.

`CN(C)CCCN1c2ccccc2Sc2ccc(Cl)cc21` [Chlorpromazine hcl]: the vesicle damage came to 15.7%.

In the case of `Nc1ccn([C@@H]2O[C@H](CO)[C@@H](O)[C@@H]2O)c(=O)n1` [Cytarabine], the vesicle damage is -0.316%.

Regarding `CC(=O)[C@H]1CC[C@H]2[C@@H]3CCC4=CC(=O)CC[C@]4(C)[C@H]3CC[C@]12C` [Progesterone], the vesicle damage was -3.19%.

In the case of `O=C(O)COCCN1CCN(C(c2ccccc2)c2ccc(Cl)cc2)CC1` (stereo not given) [Cetirizine di hcl], the vesicle damage is -0.893%.

Take `Cc1cnc(C(=O)NCCc2ccc(S(=O)(=O)NC(=O)NC3CCCCC3)cc2)cn1` [Glipizide]: the vesicle damage was -13.8%.

On to `Nc1ccn([C@@H]2O[C@H](CO)[C@@H](O)C2(F)F)c(=O)n1` [Gemcitabine Hydrochloride], for which the vesicle damage was 0.979%.

As to `COc1ccccc1N1CCN(CC(O)COc2cccc3ccccc23)CC1` (stereo not given) [Naftopidil], the vesicle damage stood at 0.769%.

In the case of `CCN(CC)CCOc1ccc(C(=C(Cl)c2ccccc2)c2ccccc2)cc1` [Clomifene citrate], the vesicle damage is -4.57%.

As for `CN(CCOc1ccc(CC2SC(=O)NC2=O)cc1)c1ccccn1` (stereo not given) [Rosiglitazone], the vesicle damage is -1.77%.

For `O=C(O)Cc1ccccc1Nc1c(Cl)cccc1Cl` [Diclofenac sodium], the vesicle damage was 6.19%.

On to `NC(=O)c1cnccn1` [Pyrazinamide], for which the vesicle damage is -10.2%.

Regarding `CCOC(=O)[C@H](CCc1ccccc1)N[C@@H](C)C(=O)N1CCC[C@H]1C(=O)O` [Enalapril maleate], the vesicle damage is -7.58%.

As for `COC(=O)Nc1nc2cc(Sc3ccccc3)ccc2[nH]1` [Fenbendazole], the vesicle damage was found to be 7.35%.

For `CNC(=O)c1cc(Oc2ccc(NC(=O)Nc3ccc(Cl)c(C(F)(F)F)c3)cc2)ccn1` [Sorafenib Tosylate], the vesicle damage was 139%.

Regarding `COC(=O)C1=C(C)NC(C)=C(C(=O)OCCN2CCN(C(c3ccccc3)c3ccccc3)CC2)C1c1cccc([N+](=O)[O-])c1` (stereo not given) [Manidipine], the vesicle damage stood at 0.374%.
